Amino acid sequences for entries named in this document (tags omitted). A change or cut given only in a name is not applied to a line headed by its entry.
UniProt P26358: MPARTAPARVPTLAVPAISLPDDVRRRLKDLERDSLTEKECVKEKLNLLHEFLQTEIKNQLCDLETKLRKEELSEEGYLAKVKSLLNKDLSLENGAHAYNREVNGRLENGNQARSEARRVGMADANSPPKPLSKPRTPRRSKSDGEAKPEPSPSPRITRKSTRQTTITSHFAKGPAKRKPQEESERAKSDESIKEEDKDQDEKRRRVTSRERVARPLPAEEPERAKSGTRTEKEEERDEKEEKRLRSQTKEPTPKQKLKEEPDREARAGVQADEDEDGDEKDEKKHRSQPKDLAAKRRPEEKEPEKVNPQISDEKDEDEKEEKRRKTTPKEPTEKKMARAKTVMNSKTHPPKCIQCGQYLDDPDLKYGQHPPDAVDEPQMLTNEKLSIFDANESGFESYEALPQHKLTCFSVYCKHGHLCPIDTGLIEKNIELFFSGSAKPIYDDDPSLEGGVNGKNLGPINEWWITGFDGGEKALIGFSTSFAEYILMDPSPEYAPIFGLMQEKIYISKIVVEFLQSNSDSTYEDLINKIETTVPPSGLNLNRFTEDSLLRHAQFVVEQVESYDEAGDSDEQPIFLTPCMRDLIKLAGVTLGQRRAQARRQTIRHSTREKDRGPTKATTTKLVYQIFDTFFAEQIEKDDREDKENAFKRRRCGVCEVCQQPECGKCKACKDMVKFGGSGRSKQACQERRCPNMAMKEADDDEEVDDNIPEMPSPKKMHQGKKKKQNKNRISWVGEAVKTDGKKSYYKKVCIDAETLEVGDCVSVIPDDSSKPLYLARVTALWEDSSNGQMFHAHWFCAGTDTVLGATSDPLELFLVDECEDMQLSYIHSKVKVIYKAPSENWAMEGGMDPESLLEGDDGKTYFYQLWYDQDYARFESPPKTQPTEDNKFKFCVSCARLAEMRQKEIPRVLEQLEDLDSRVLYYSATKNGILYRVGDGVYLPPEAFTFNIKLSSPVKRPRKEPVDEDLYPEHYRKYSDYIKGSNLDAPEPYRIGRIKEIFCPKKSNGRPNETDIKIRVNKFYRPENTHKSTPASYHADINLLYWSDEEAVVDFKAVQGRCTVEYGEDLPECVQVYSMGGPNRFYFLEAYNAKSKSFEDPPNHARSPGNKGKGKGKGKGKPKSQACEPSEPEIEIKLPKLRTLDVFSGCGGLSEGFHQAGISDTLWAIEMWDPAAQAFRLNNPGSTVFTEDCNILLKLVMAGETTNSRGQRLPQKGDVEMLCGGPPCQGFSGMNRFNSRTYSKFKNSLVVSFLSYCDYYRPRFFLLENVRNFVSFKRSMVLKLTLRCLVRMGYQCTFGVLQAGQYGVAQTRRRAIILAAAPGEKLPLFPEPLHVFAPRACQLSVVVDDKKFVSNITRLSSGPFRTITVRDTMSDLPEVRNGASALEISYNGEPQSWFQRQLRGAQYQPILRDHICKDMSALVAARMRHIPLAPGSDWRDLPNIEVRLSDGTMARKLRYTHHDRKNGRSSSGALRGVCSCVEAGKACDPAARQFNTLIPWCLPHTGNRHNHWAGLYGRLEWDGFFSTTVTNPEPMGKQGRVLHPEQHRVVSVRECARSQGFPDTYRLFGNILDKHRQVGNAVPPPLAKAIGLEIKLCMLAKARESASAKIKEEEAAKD

In publication PMC4941050:

Target: DNMT1 (human) (UniProt P26358)
Assay: EMSA
Settings: 0.2 uM protein, only slight binding; 20 mM HEPES, 40 mM KCl, 1 mM EDTA, 0.2 mM DTT, 0.1 mg/ml BSA, 0.1% Tween-20, 20% glycerol; pH not stated; 1 h at 37 C; 1 nM probe; native 4-20% PAGE; commercial protein; residues 1-1616; label: 5'-Cy5.5

Sequence | binding result
GUCUGUGCACCGUGUGCAUAUACAG [ecRNA-2] | binds more weakly
GGGGACACGCCCUCUGUUCCCUUAU [ecRNA-1] | binds more weakly

The comparison behind a weaker result is the experiment's own reference, which may not be listed here.
